From patent US11951204B2 (S-SKIN. CO., LTD., priority 2022, dated 2024) come the findings set out here.

End groups of sequences in plain letters are not given here. HELM strings list residues between dots; [ac] is acetyl, [am] amide, other brackets name non-standard units. Ends that are not written are not given here. * marks the point of attachment. FITC = O=C1OC2(c3ccc(O)cc3Oc3cc(O)ccc32)c2ccc(NC(=S)*)cc21; Ahx = NCCCCCC(=O)O

The data set in a line: peptide synthesis. The conditions noted are these: whole synthesis.
Take H-KTTKS-OH: the “purity (crude or final not stated)” value stood at 99.00%. The figure for KRRWRKIPKR is 98.23%.

Regarding KTTKSRLRLRQRRRR, the “purity (crude or final not stated)” value amounted to 95.83%. For PEPTIDE1{[Pal].K.T.T.K.S}$$$$V2.0 the value was 97.60%; for RKRWLRKPRP, 97.97%; for RLRLRQRRRR, 95.11%. The figure for RLRLRQRRRRKTTKS is 96.31%; for YGRKRRQRRR it is 99.53%.

Turning to {FITC-Ahx}-KRRWRKIPKR, the “purity (crude or final not stated)” value came to 95.19%. The figure for {FITC-Ahx}-RKRWLRKPRP is 95.55%; for {FITC-Ahx}-RLRLRQRRRR it is 95.39%.
